Experimental data from PubChem BioAssay AID1347076 (National Center for Advancing Translational Sciences (NCATS), 2019).
The campaign covered roughly 400,000 compounds. About 13,000 (3.2%) were called active. The inconclusive results got no clear call from the source; some entries with a clear call stand among them for comparison. Calls follow the shape of the dose curve; as a rule, active = well fitted cell-killing curve with a large enough effect; inconclusive = small, poorly fitted or top-dose-only effect, or effect the other way; inactive = flat fitted curve, though single readings scatter. Potencies of inconclusive entries are doubtful fits and often do not repeat.

assay: qHTS assay for MDR1-selective chemotherapeutics: Primary screen using the drug-selected MDR subline cells KB-V1; conditions: KB-V1 MDR cells viability, CellTiter-Glo, 72 h; activity change, negative = cytotoxicity: at 46.1 µM (top of the series); also: nearly all actives have a fitted effect of over 60% in size
Outline: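 Cytotoxicity via CellTiter-Glo luminescence after 72 h compound exposure at 37 degrees C. Cells: drug-selected KB-V1 line, DMEM phenol-red free plus 10% FBS. Compounds tested at multiple concentrations; normalized data fitted to concentration-effect curves.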
% is scaled to controls: 0 for no effect and ±100 for the full control effect; potency is read from the fitted curve at half-maximal effect.

SMILES	Potency	activity change, negative = cytotoxicity
N#Cc1c(N2CCCC(O)C2)nc(N)c2c(N)nc3c(c12)CC(=O)N3C12CC3CC(CC(C3)C1)C2 (stereo not given)	active: 14.6 µM	–
Cn1c(Cn2c(=O)sc3ccccc32)nnc1SCc1ccccn1	inconclusive: 16.4 µM [cytotoxic, partial curve, poor fit]	–
CSC1=Nc2sc3c(c2C2=NCCN12)CC(C)(C)OC3	inconclusive: 20.6 µM [cytotoxic, single point]	–
CC1CCCCN1C(=O)Cn1c(=O)n(-c2ccc(Cl)cc2)c(=O)c2c3c(sc21)CCC3 (stereo not given)	–	inactive: 12.4%
CCc1nc2c(OCc3ccc(C(F)(F)F)cc3)cccn2c1N(C)C(=O)CC(C)C	inconclusive: 29.1 µM [cytotoxic, single point]	–
CCc1ccc2[nH]c3nc(SCCN4CCOCC4)nnc3c2c1	inconclusive: 4.11 µM [cytotoxic, full curve]	–
CCOc1ccc(N2C(=O)CC(Cc3ccccc3OC)C2=O)cc1 (stereo not given)	inconclusive: 7.31 µM [cytotoxic, partial curve, poor fit]	–
COc1ccc(S(=O)(=O)N(C)C)cc1NC(=O)COC(=O)CC1CCCC1	inconclusive: 18.4 µM [rising, single point]	–
CC(C)(C)C(=O)N/C(N)=N/c1nc2ccccc2o1	inconclusive: 29.1 µM [cytotoxic, single point]	–
CC(NCC1COc2ccccc2O1)C(=O)NCc1ccccc1 (stereo not given)	inconclusive: 23.1 µM [cytotoxic, partial curve, poor fit]	–
CCCS(=O)(=O)NC(=O)C1(C)CCCN(C(=O)c2cccc(Cl)c2)C1 (stereo not given)	–	inactive: 4.67%
COc1cccc(N(C(=O)c2sc(C)nc2C)C(C(=O)NCC2CCCO2)c2ccccc2)c1 (stereo not given)	inconclusive: 5.17 µM [cytotoxic, partial curve]	–
Cc1c(C#N)c(NC(=O)COC(=O)c2cc(Cl)c3c(c2)OCCCO3)n(Cc2ccco2)c1C	–	inactive: -17.2%
O=C1c2ccccc2-c2nc3ccccc3nc21	–	inactive: -10.8%
Cc1ccc(-n2c(-c3ccncc3)n[nH]c2=S)cc1	inconclusive: 18.4 µM [rising, partial curve]	–
Cc1nc2sc(C#N)c(N)c2c2c1CCCC2	–	inactive: -14.2%
CC(C)(CNC(=O)CCC1CCCC1)CNC(=O)CCC1CCCC1	inconclusive: 0.411 µM [cytotoxic, full curve]	–
CCCCNC(=O)C[C@@H]1C[C@@]2(C(=O)OCC)CCC=C2N(Cc2ccccc2)C1=O	inconclusive: 8.2 µM [cytotoxic, partial curve]	–
COC(=O)c1ccc(CN2CCc3ccc(NC(=O)c4ccncc4)cc3C2)cc1	active: 13 µM	–
O=C(CSc1ccccc1)Nc1ccc(NC(=O)c2ccco2)cc1	inconclusive: 14.6 µM [cytotoxic, partial curve, poor fit]	–
CCOC(=O)C1=C(C)NC(C)=C(C(=O)OCC)C1C(=O)OCC(=O)N1CCCCC1CC (stereo not given)	–	inconclusive: -31% [cytotoxic]
COc1ccc(C(=O)O)cc1S(=O)(=O)N1CCN(Cc2ccc3c(c2)OCO3)CC1	–	inactive: 1.46%
c1ccc(-c2ncc(-c3ccn[nH]3)s2)cc1	inconclusive: 29.1 µM [cytotoxic, single point]	–

SMILES	Potency	activity change, negative = cytotoxicity
CCOc1ccccc1C(=O)NC(CO)C(=O)O (stereo not given)	inconclusive: 32.6 µM [rising, single point]	–
Cc1ccc(-c2nn(C)c(=O)c3ccccc23)cc1CNC(=O)/C=C/c1ccccc1	inconclusive: 20.6 µM [cytotoxic, partial curve]	–
Cc1ccc(-n2c(SCC(=O)N3CCCc4ccccc43)nnc2-c2cccnc2)c(C)c1	inconclusive: 8.2 µM [cytotoxic, partial curve]	–
Cc1nc(-c2ccc(S(=O)(=O)Nc3ccc(C#N)cc3)cc2)co1	inconclusive: 29.1 µM [cytotoxic, single point]	–
COC(=O)c1ccc(NC(=O)CSc2nc(C)cc(C)c2C(=O)Nc2ccccc2)cc1	–	inactive: -8.07%
Cn1c(NCCCN2CCOCC2)nc2c1c(=O)n(Cc1ccc(Cl)c(Cl)c1)c(=O)n2C	active: 14.6 µM	–
CN(C)c1cccc(C(=O)NNC(=O)CN2C(=O)C3CC=CCC3C2=O)c1 (stereo not given)	–	inactive: 12.8%
S=c1[nH]c2cc3c(cc2[nH]1)OCCO3	inconclusive: 29.1 µM [cytotoxic, single point]	–
COc1ccc(C(=O)CSc2nc3ccccc3n2CC(=O)c2ccccc2)cc1	inconclusive: 20.6 µM [cytotoxic, partial curve]	–
CCOc1cc(Cl)c(S(=O)(=O)NCc2ccccn2)cc1Cl	inconclusive: 18.4 µM [cytotoxic, single point]	–
CCn1c(SCC(=O)N2CCCC2=O)nc2ccccc21	inconclusive: 25.9 µM [rising, single point]	–
O=C1CC(c2cccs2)Cc2nc(NCC3CCCO3)ncc21 (stereo not given)	active: 16.4 µM	–
O=C(O)c1ccc(N2CCCS2(=O)=O)cc1	–	inactive: -3%
COc1ccc(CN2C(=O)c3ccccc3C2=O)cc1C(=O)Nc1ccccc1N1CCOCC1	inconclusive: 9.2 µM [cytotoxic, partial curve]	–
O=C(Cc1ccccc1)N[C@@H]1c2ccccc2CC[C@@H]1OCc1ccccc1	–	inactive: 6.39%
CCCCCCc1cc2cc(C(=O)NCc3ccccc3)c(=N)oc2cc1O	–	inactive: -26.5%
O=C(OCc1cnc(Cl)s1)c1ccccc1Cl	–	inactive: -14.6%
COc1cccc2cc(C(=O)OCc3ccccc3)c(=O)oc12	inconclusive: 29.1 µM [rising, single point]	–
COc1ccc(-c2nn(-c3ccccc3)cc2CNC(=O)c2cccc([N+](=O)[O-])c2)cc1	inconclusive: 4.61 µM [cytotoxic, partial curve, poor fit]	–
O=C(c1ccc(Br)cc1)N(Cc1nc2ccccc2c(=O)[nH]1)C1CCCC1	inconclusive: 7.31 µM [cytotoxic, partial curve, poor fit]	–
O=C(c1cc(COc2ccc3ncccc3c2)on1)N1CCCC1	inconclusive: 8.2 µM [cytotoxic, partial curve]	–
Cc1ccc(S(=O)(=O)CC(=O)c2cc3cccc(C)c3oc2=O)cc1	–	inactive: -7.05%
